Results deposited as PubChem BioAssay AID1159578 (Peter MacCallum Cancer Centre, 2015).
The deposit covers about 18,000 reagents; shown is an unselected part. About 1,030 of them (5.7%) were called active. 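Inactive calls also include pools with fewer than 3300 nuclei, whose migration was not assessed.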 The raw values are shown without normalisation. Not all columns of the deposit are shown.

Purpose: 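Genome-wide hunt for genes controlling movement of lymphatic endothelial cells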 (primary screen)
Cells: human lymphatic endothelial cells
Reagents: siRNA pool against human genes, 40 nM
Timing: 48 h after transfection
Measurement: 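High-content imaging of dye-stained cells in a scratch assay measures filled wound area and nuclei per well; duplicate means given as ratio to mock and robust z-score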
Reading the numbers: migration robust z-score: higher = faster migration into the scratch; nuclei per well: higher = more cells in the well
Rule for the call: 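Migration changed when robust z exceeds 2 or falls below -2 and mean nuclei number is at least 3300; otherwise not called changed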
Meaning of the calls: active = migration changed; inactive = no migration change, or too few cells

The first 2 records, to show the layout:
RPL21P44 (ribosomal protein L21 pseudogene 44) | migration robust z-score = -0.38; migration class with cell-count check = migration z between -2 and 2; enough cells; nuclei per well, duplicate mean = 4048; Outcome = inactive
MRPS17 (mitochondrial ribosomal protein S17) | migration robust z-score = -0.32; migration class with cell-count check = migration z between -2 and 2; enough cells; nuclei per well, duplicate mean = 5676; Outcome = inactive

The list itself, repeating the preview:
RPL21P44 (ribosomal protein L21 pseudogene 44) | migration robust z-score = -0.38; migration class with cell-count check = migration z between -2 and 2; enough cells; nuclei per well, duplicate mean = 4048; Outcome = inactive
MRPS17 (mitochondrial ribosomal protein S17) | migration robust z-score = -0.32; migration class with cell-count check = migration z between -2 and 2; enough cells; nuclei per well, duplicate mean = 5676; Outcome = inactive
NGDN (neuroguidin) | migration robust z-score = 0.12; migration class with cell-count check = migration z between -2 and 2; enough cells; nuclei per well, duplicate mean = 6092; Outcome = inactive
ALDH1A1 (aldehyde dehydrogenase 1 family member A1) | migration robust z-score = -0.46; migration class with cell-count check = migration z between -2 and 2; enough cells; nuclei per well, duplicate mean = 6468; Outcome = inactive
EVC2 (EvC ciliary complex subunit 2) | migration robust z-score = -0.04; migration class with cell-count check = migration z between -2 and 2; enough cells; nuclei per well, duplicate mean = 5098; Outcome = inactive
MCCC2 (methylcrotonyl-CoA carboxylase subunit 2) | migration robust z-score = 0.55; migration class with cell-count check = migration z between -2 and 2; enough cells; nuclei per well, duplicate mean = 5516; Outcome = inactive
MRPL37 (mitochondrial ribosomal protein L37) | migration robust z-score = -0.2; migration class with cell-count check = migration z between -2 and 2; enough cells; nuclei per well, duplicate mean = 4520; Outcome = inactive
CDC25C (cell division cycle 25C) | migration robust z-score = -0.02; migration class with cell-count check = migration z between -2 and 2; enough cells; nuclei per well, duplicate mean = 5068; Outcome = inactive
SLC25A43 | migration robust z-score = -0.75; migration class with cell-count check = migration z between -2 and 2; enough cells; nuclei per well, duplicate mean = 5592; Outcome = inactive
DDX60 (DExD/H-box helicase 60) | migration robust z-score = 0.29; migration class with cell-count check = migration z between -2 and 2; enough cells; nuclei per well, duplicate mean = 7066; Outcome = inactive
ANKRD23 (ankyrin repeat domain 23) | migration robust z-score = 0.24; migration class with cell-count check = migration z between -2 and 2; enough cells; nuclei per well, duplicate mean = 5694; Outcome = inactive
SRPK1 (SRSF protein kinase 1) | migration robust z-score = 0.03; migration class with cell-count check = migration z between -2 and 2; enough cells; nuclei per well, duplicate mean = 5590; Outcome = inactive
SNRPD1 (small nuclear ribonucleoprotein D1 polypeptide) | migration robust z-score = -2.59; migration class with cell-count check = migration z below -2; enough cells; nuclei per well, duplicate mean = 3512; Outcome = active
GINS2 (GINS complex subunit 2) | migration robust z-score = 0.72; migration class with cell-count check = migration z between -2 and 2; enough cells; nuclei per well, duplicate mean = 6260; Outcome = inactive
OR56A1 (olfactory receptor family 56 subfamily A member 1) | migration robust z-score = -2.15; migration class with cell-count check = migration z below -2; enough cells; nuclei per well, duplicate mean = 4056; Outcome = active
C1QC (complement C1q C chain) | migration robust z-score = -2.27; migration class with cell-count check = migration z below -2; enough cells; nuclei per well, duplicate mean = 5294; Outcome = active
DMAC1 (distal membrane arm assembly component 1) | migration robust z-score = 0.64; migration class with cell-count check = migration z between -2 and 2; enough cells; nuclei per well, duplicate mean = 5702; Outcome = inactive
LRBA (LPS responsive beige-like anchor protein) | migration robust z-score = 0.74; migration class with cell-count check = migration z between -2 and 2; enough cells; nuclei per well, duplicate mean = 5672; Outcome = inactive
MAGEC1 (MAGE family member C1) | migration robust z-score = 0.22; migration class with cell-count check = migration z between -2 and 2; enough cells; nuclei per well, duplicate mean = 6741; Outcome = inactive
ATP13A4 (ATPase 13A4) | migration robust z-score = -0.46; migration class with cell-count check = migration z between -2 and 2; enough cells; nuclei per well, duplicate mean = 6415; Outcome = inactive
ALKBH2 (alkB homolog 2, alpha-ketoglutarate dependent dioxygenase) | migration robust z-score = 0.54; migration class with cell-count check = migration z between -2 and 2; enough cells; nuclei per well, duplicate mean = 6440; Outcome = inactive
